Among all 52,000 sequences or so, about 210 (0.4%) were called active.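 How the source made its calls: active means gene whose silencing raises cell survival under the drug, median off-target-corrected z-score across its silencing RNAs 2 or more; inactive means the rest.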 The list shows a part of the results.

The assay is described as follows: Resistance to Poly (ADP-Ribose) Polymerase inhibitor: Gene Identification via Genome-wide siRNA Screen. Conditions: mouse BRCA2 R2336H ES cells, olaparib, CellTiter-Glo viability; active compounds read high. An outline of the steps: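 Genome-wide siRNA screen (3 siRNAs/gene, 20 nM) in mouse ES cells carrying hypomorphic BRCA2 R2336H; olaparib 500 nM added 48 h post-transfection, CellTiter-Glo viability 72 h later. Normalized to plate-median negative control; MAD z-scores, gene median, seed-adjusted.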
A general note: Cellular ATP, detected with luciferase, serves as a proxy for viable cell number.
For GGACAAUUGAAAACUGCCUTT against Gpd1, the z-score was inactive: 1.88.

Regarding GGAAAUGAUCUCUUUUGGATT against Bbs2, the z-score was inactive: 0.41. As for “GCGAACCGAGAGUCUAUACTT against 4631402N15Rik”, the z-score was inactive: -1.04. For GGUGGUGAUUCACCUCCAATT against Tnfrsf12a, the z-score is inactive: -0.839.

“GGAAAAAGAUAGAACCAGATT against 1700108L22Rik”: the z-score is inactive: -0.213. As for CGUUAACCACAGUGAGAGATT against Pvrl4, the figure is inactive: 1.07; as for GCAUCGAAUGUUUGAACCCTT against Gstm6, inactive: -1.42.

On to CCAGGUCUAAAAGUAACAATT against Unc13b, for which the z-score is inactive: 0.327. CCAGAUUAUCCGUUUAAACTT against Ube2e2: the z-score is inactive: -0.251. As for CCAGCAUGCAUCCAUUCUUTT against Mageb3, the figure is inactive: -1.59.

As to “GGAACGAGGAGUCAAUAGATT against 1110006O17Rik”, the z-score is inactive: 1.4. The figure for GGAGAGGAGUUGGAUAGAUTT against Mobp is inactive: -0.762; for GGCUUUAUAUCAAGAUUUGTT against Lrrc2 it is inactive: -0.658; for GGCUUCAGCUAACCAAGCUTT against Adat1 it is inactive: 0.239.

For the sequence GGGAUGAAAAAAUUGGAUATT against Chd1, the z-score is inactive: -0.311. As for GGGAGGGAUGCAGUAAAUGTT against Acaa1, the z-score was inactive: -1.58. “CCCUCCAGCACUUGUUACATT against 4732427B05”: the z-score was inactive: -2.04. With GGACCUGGUAUCUCUAUAUTT against Rasgrp4, the z-score was inactive: -0.16. On to GGGAGUUCUGCUUUAUUGCTT against Bst2, for which the z-score is inactive: -0.0443. The figure for “GGAAGUUUAUGAUGAUGUCTT against 2610317D23Rik” is inactive: -0.802.

On to GGAGACACUGAACAUCUUATT against Kctd13, for which the z-score was inactive: 0.744. As for CCUUAAUCGCAUCAAAUUATT against Slc1a3, the figure is inactive: 1.24. For CCAACUUUCUCUUAGGAAATT against Gm580, the z-score was inactive: 0.9. For “GGAGAUGUUGUUUGCUACUTT against D16H22S680E”, the z-score is inactive: 0.407. The figure for GGGCUCAAGGUUAUUAAUGTT against Gjb1 is inactive: 2.72; for GGCUUAGGUGUCCGAGAAATT against Wfdc2 it is inactive: -1.26; for GCUUCAGUAUAACCUAGAATT against Catsper2 it is inactive: -0.59.

For GCUGACAAUACUGAAUUGGTT against Pkhd1l1, the z-score was inactive: 1.32.

With “GCACCAGCCCUAUAAACUGTT against 1200004M23Rik”, the z-score is inactive: 0.873. The figure for GGAAGAAGUACCCAUGCAATT against Olfr64 is inactive: -1.3. As for GGUGCAUUAUAAGAAUCGCTT against Fhl1, the figure is inactive: 1.1. GGAGCAUUUUAUUCAGAUGTT against Rad23b: the z-score is inactive: -2.04. Regarding “GGACUAUCUCAUCGGAACCTT against 4930403O06Rik”, the z-score was inactive: 0.342. With “GGCUCUUCGAGACUUUGAGTT against D130016K21Rik”, the z-score was inactive: -2.73. As for GGAAAACCUUGGACAGGAGTT against Olfr876, the z-score is inactive: -1.75. On to GCCAGGAAUAGUGAUUAUUTT against Atp11c, for which the z-score was inactive: -1.15.

As to GCACAUUCCUAAGACAAUCTT against Spag4l, the z-score is inactive: 1.26. As for GGGAUACGUCAUCUGUUAATT against Ilf3, the figure is inactive: 0.836. The figure for GCUGAACGUGAGAUUGUGCTT against Acta1 is inactive: -0.251; for GCAAGUCCUACAAUACAACTT against Tk1 it is inactive: -0.837.

For the sequence GGAAGUGAUACUGUCUAUATT against Rfx3, the z-score was inactive: -0.777. As for GCAUCAUUGUCAAUCAUAUTT against Olfr578, the figure is inactive: 0.585; as for GCAAACGCAGUACUAUGGUTT against Pak2, inactive: 0.255.

As for GAACCCUCAUGAGGGUUACTT against C1ql1, the z-score is inactive: 0.0584. As for “GGGAUUGGUUAUUUUACAUTT against 4632406N01Rik”, the figure is inactive: -0.349. With GGAAAAGGAAAAAUAACCUTT against Ptma, the z-score is inactive: -1.05.

Regarding CGCUAGAAGGAUUAUACCUTT against Vps13c, the z-score is inactive: -0.25.

In the case of GGCGAGUUUGUUCUCUUAGTT against Olfr11, the z-score was inactive: -0.705.

With “CCAGGAACCUAUUGAAUCUTT against D830019K17Rik”, the z-score is inactive: 2.67. The figure for AGUUCGACUUUGACGACGGTT against Jph4 is inactive: 1.24. With GGGCCUAAAGGACUUGGCUTT against Dlgh4, the z-score was inactive: -0.142. The figure for GGAGACACGGCCCUAAUCATT against Ddah2 is inactive: 2.44. As for “GGAUUUCGUGUGGAUGAAATT against D14Ertd500e”, the figure is inactive: -1.16; as for GGUGGGUGACACUUAAACATT against V1rg2, inactive: -2.31; as for “GCAAACCAACAGAUGCUGCTT against 4930500C15Rik”, inactive: -0.297. As for GGGCCAAGUUCCGAAAGAATT against Otx3, the figure is inactive: -2.29; as for GGAGAAGGAUAGAGAUGGUTT against Phf5a, inactive: -2.98. For CCUACCAAAACGACUAUAUTT against Pnma3, the z-score was inactive: 0.795. On to “CGGCAUCUUUUUGAAUCAATT against 0610010D24Rik”, for which the z-score was inactive: 0.859. For the sequence GCAUCUCACGCUACAGAUUTT against Dock2, the z-score is inactive: -1.15.

“GGAUAAACCUAUGAAUGAATT against B230358A15Rik”: the z-score is inactive: -0.539. For “GCUACAUCACAUGCAGUUCTT against 6430517E21Rik”, the z-score is inactive: -1.06. On to CCAAAAGGUUCGAGUUUCATT against Padi4, for which the z-score was inactive: -0.284.

As for “CGAUCCAUGUUGUAAGCGCTT against 1700056P18Rik”, the z-score is inactive: -0.0835.

In the case of “GCUGGUAUUUAAUAGAGGATT against 2610020O08Rik”, the z-score is inactive: 0.603. The figure for GGUUUACUUCCCAUACCUGTT against Pold1 is inactive: -1.36.
